From patent publication US20190218304A1, “POTENTIATING THE EFFECT OF ATP RELEASE” (INNATE PHARMA, priority 2017, published 2019)
Residue numbers refer to the chain shown, from its start. No constants are given. Whether binding was seen depends on the method and setting. Some entries that bind do so weakly or less than the wild type.

What was measured:
Experiment in all cases: flow cytometry on transfected Hek-293T cells
CD39 mutant 12 (human) = target: T1, CD39 mutant 12 (human) (UniProt P49961)
T1 sequence: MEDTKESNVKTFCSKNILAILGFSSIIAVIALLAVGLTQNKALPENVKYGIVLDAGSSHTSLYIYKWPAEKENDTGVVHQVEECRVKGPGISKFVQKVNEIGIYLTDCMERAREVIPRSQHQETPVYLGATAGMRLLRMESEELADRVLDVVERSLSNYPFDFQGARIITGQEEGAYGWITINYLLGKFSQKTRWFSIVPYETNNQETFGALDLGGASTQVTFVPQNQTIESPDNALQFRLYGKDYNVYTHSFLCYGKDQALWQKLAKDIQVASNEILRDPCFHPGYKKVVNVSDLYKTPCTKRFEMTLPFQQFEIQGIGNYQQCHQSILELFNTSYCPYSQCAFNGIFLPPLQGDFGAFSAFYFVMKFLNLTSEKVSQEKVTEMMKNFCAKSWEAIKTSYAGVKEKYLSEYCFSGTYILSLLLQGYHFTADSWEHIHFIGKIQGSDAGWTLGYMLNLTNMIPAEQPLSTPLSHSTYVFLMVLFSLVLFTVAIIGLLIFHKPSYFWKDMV

CD39 mutant 3 (human) = target: T2, CD39 mutant 3 (human) (UniProt P49961)
T2 sequence: T1 sequence with R118A, S119A, Q120K, Q122H, E123A, N388K, K392Q, S393P, A396E

CD39 mutant 10A (human) = target: T3, CD39 mutant 10A (human) (UniProt P49961)
T3 sequence: T1 sequence with Q354A, D356S, N388K, K392Q, S393P, A396E, E435A, H436Q

CD39 mutant 8 (human) = target: T4, CD39 mutant 8 (human) (UniProt P49961)
T4 sequence: T1 sequence with S294A, K298G, K303A, E306A, T308K, Q312A, N388K, K392Q, S393P, A396E

CD39 mutant 10B (human) = target: T5, CD39 mutant 10B (human) (UniProt P49961)
T5 sequence: T1 sequence with N388K, K392Q, S393P, A396E, H428A, T430A, A431D, D432A

- binding (CD39 mutant 12 (human)): binds
- binding (CD39 mutant 3 (human)): binds
- binding (CD39 mutant 10A (human)): binds
- binding (CD39 mutant 8 (human)): binds
- binding (CD39 mutant 10B (human)): binds
B1: antibody I-399 (antibody, V domains shown)
VH: PVQLQQPGAEVVMPGASVKLSCKASGYTFTSFWMNWMRQRPGQGLEWIGEIDPSDFYTNSNQRFKGKATLTVDKSSSTAYMQLSSLTSEDSAVYFCARGDFGWYFDVWGTGTSVTVSS
VL: EIVLTQSPTTMTSSPGEKITFTCSASSSINSNYLHWYQQKPGFSPKLLIYRTSNLASGVPTRFSGSGSGTSYSLTIGTMEAEDVATYYCQQGSSLPRTFGGGTKLEIK
